Measured values taken from US12465646B2 (Oxford University Innovation Limited, priority 2018, dated 2025).

experiment: general procedure: Fmoc solid-phase peptide synthesis; Rink amide resin; PyBOP/DIPEA; settings: whole synthesis, scale of the general procedure 100 μmol

Compared with Ac- RBRRBRFQILYRBHBH-E, Ac-RBRRBRFQILYBRBR-E is higher in isolated yield: 34% for the first, 40% for the second.

Ac-RBRRBRRFQILYRBHBH-E and E-RBRRBRRFQILYRBHBH-NH2 are the same in isolated yield: 34% for the first, 34% for the second.

With Succ-RBRRBRRFQILYRBHBH-NH2 the isolated yield was 26%.

experiment: general procedure: Fmoc solid-phase peptide synthesis; Pre-loaded Wang resin; PyBOP/DIPEA; settings: whole synthesis, scale of the general procedure 100 μmol

Ac-RBRRBRRFQILYRBHBH-B showed an isolated yield of 34%.

experiment: general procedure: Fmoc solid-phase peptide synthesis; Rink amide resin (0.46 mmol/g); Fmoc-β-Ala-OH preloaded Wang resin (0.19 or 0.46 mmol/g); Tentagel Cl-trityl resin (0.41); PyBOP/DIPEA; settings: conjugation step, based on P-PMO (UV-Vis, PMO extinction coefficient)

Going from Ac-RBRRBRFQILYRBHBH-(E)-PMO to Ac-RBRRBRRFQILYRBHBH-(Ab)-PMO, the conjugation yield falls from 49% to 26%.

Going from Ac-RBRRBRRFQILYRBHBH-(E)-PMO to PMO-(E)-RBRRBRRFQILYRBHBH-NH2, the conjugation yield rises from 27% to 48%.

PMO-(Succ)-RBRRBRRFQILYRBHBH-NH2 showed a conjugation yield of 64%.

experiment: general procedure: Fmoc solid-phase peptide synthesis; CI-Trityl tentagel resin; PyBOP/DIPEA; settings: whole synthesis, scale of the general procedure 100 μmol

With Ac-RBRRBRRFQILYRBHBH-Ab the isolated yield was 37%.
